Values quoted from earlier work in US20240335418A1, “SAFER PSYCHOACTIVE COMPOSITIONS” (Arcadia Medicine, Inc., priority 2021, published 2024).
For at least one compound, name, drawing or mass did not settle the structure.

Key:
[1] = cited from earlier work
[2] = 5-weeks post-treatment, treatment-resistant depression; cited from earlier work

SMILES	Maximum proposed dose [1]	Maximum tested single dose [1]	Maximum Recommended Starting Dose (MRSD): initial dose MDMA HCl ([1]; initial dose)	Maximum Recommended Starting Dose (MRSD): supplemental dose MDMA HCl ([1]; supplemental dose)	Reduction in depressive symptoms (QIDS SR) [2]
CNC(C)Cc1ccc2c(c1)OCO2 (centres unmarked) [MDMA, 3,4-methylenedioxymethamphetamine]	dose: 125 mg	dose: 150 mg	80 mg-120 mg initial	40 mg-60 mg	–
CN(C)CCc1c[nH]c2cccc(OP(=O)(O)O)c12 [psilocybin, 3-(2-Dimethylaminoethyl)-1H-indol-4-yl] dihydrogen phosphate]	–	–	–	–	≥ 50%
